{
  "source": "PubChem BioAssay AID485298",
  "about": "(National Center for Advancing Translational Sciences (NCATS), 2010)",
  "note": "The whole screen tested about 320,000 compounds, of which about 740 (0.23%) were called active. Inconclusive means that the source gave no clear call. Such entries were picked first, then a sample of the others. The call rests on the fitted dose curve; in most records, active means well fitted activation curve with a large enough effect; inconclusive means small, poorly fitted or top-dose-only effect; inactive means no such curve, though single readings can be large or run the other way. A potency beside an inconclusive call is a rough fit, not a confirmed value. Potency means the concentration at half of the fitted maximal effect.",
  "data": [
    {"assay": "qHTS Assay for Small Molecule Inhibitors of Mitochondrial Division or Activators of Mitochondrial Fusion; further: nearly all actives have a fitted effect of over 45% in size", "settings": "S. cerevisiae fusion-defective mutant growth rescue, CellTiterGlo 48 h; series mostly up to 46.1 µM", "outline": "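Luminescent cell viability in 1536-well qHTS format served as the measure of rescued growth in ts fusion-mutant S. cerevisiae cultured on non-fermentable YPEG for 48 hours at 37C.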", "values": [
      {"smiles": "Cc1cc2nc(N3C(=O)CNC3=S)sc2cc1C", "Potency": "inconclusive: 14.1 µM [activator, partial curve]"},
      {"smiles": "CC(C)(C)OC(=O)[C@H](Cc1ccccc1)NC(=O)c1nc[nH]c1C(=O)N1CCN(C(=O)OC(C)(C)C)CC1", "Potency": "inactive"},
      {"smiles": "CC(Oc1ccc(Cl)cc1Cl)c1nc(-c2ccccn2)no1", "note": "(stereo unspecified)", "Potency": "inconclusive: 22.4 µM [activator, single point]"},
      {"smiles": "CCc1nnc(NC(=O)CSc2ccc(-c3cccs3)nn2)s1", "Potency": "inconclusive: 20 µM [activator, single point]"},
      {"smiles": "CCN1C(=O)/C(=C\\c2ccncc2)SC1=Nc1ccc(C)c(C)c1", "Potency": "inactive"},
      {"smiles": "Cc1ccc(-c2cc(O)cc3sc(=O)oc23)cc1C", "Potency": "inconclusive: 11.2 µM [activator, partial curve]"},
      {"smiles": "Cc1nn2c(COc3ccc(NC(=O)C(C)C)cc3)nnc2c2ccccc12", "Potency": "inactive"},
      {"smiles": "O=S(=O)(Nc1ccc(Cl)cc1)c1cccc2cccnc12", "Potency": "inconclusive: 14.1 µM [activator, single point]"},
      {"smiles": "CCc1cc(C(=O)COc2ccccc2F)c(O)cc1O", "Potency": "inconclusive: 14.1 µM [activator, partial curve]"},
      {"smiles": "Cc1c(S(=O)(=O)N2CCN(C(c3ccccc3)c3ccccc3)CC2)c(=O)n(C)c(=O)n1C", "Potency": "inconclusive: 22.4 µM [activator, single point]"},
      {"smiles": "CCOC(=O)c1ccc2ncc(C(=O)OCC)c(Nc3ccc(N4CCOCC4)cc3)c2c1", "Potency": "inconclusive: 35.5 µM [activator, single point]"},
      {"smiles": "Cc1cc(C)cc(NC(=O)CSc2ccc(-c3cccs3)nn2)c1", "Potency": "inconclusive: 14.1 µM [activator, partial curve]"},
      {"smiles": "COc1ccc(NC(=O)CSc2nc(=O)n(CCN3CCOCC3)c3c2CCC3)cc1", "Potency": "inactive"},
      {"smiles": "CCN1C(C(=O)c2ccccc2)=C(Nc2ccccc2C)c2ccccc2S1(=O)=O", "Potency": "inconclusive: 35.5 µM [activator, single point]"},
      {"smiles": "O=C1c2ccccc2C2(c3ccccc3)NCCN12", "note": "(stereo unspecified)", "Potency": "inconclusive: 11.2 µM [activator, partial curve]"},
      {"smiles": "COc1ccc(-c2sc3cc4c(cc3c2C#CC2(O)CCCCC2)OCO4)cc1", "Potency": "inconclusive: 22.4 µM [activator, single point]"},
      {"smiles": "O=C(NCc1cccc(Cl)c1)c1ccc2ccccc2n1", "Potency": "inconclusive: 35.5 µM [activator, single point]"},
      {"smiles": "COc1ccccc1N(O)C1CC(=O)N(c2ccc(F)cc2)C1=O", "note": "(stereo unspecified)", "Potency": "inactive"},
      {"smiles": "COc1ccc(Br)cc1C(C[N+](=O)[O-])c1c(N)n(C)c(=O)n(C)c1=O", "note": "(stereo unspecified)", "Potency": "inactive"},
      {"smiles": "O=C(c1cc(COc2ccc(F)cc2Cl)on1)N1CCCC(c2ccccc2)C1", "note": "(stereo unspecified)", "Potency": "inconclusive: 11.2 µM [activator, partial curve]"},
      {"smiles": "CCOc1ccc2nc(Cl)c(CN(C(C)=O)C3CCCCC3)cc2c1", "Potency": "inconclusive: 35.5 µM [activator, partial curve, poor fit]"},
      {"smiles": "Cc1c(-c2ccc(Br)cc2)nc2ccccn12", "Potency": "inactive"},
      {"smiles": "COc1ccc(C(=O)NNC(=S)NC(=O)/C=C/c2cccs2)cc1", "Potency": "inactive"},
      {"smiles": "COc1ccccc1N1CC(C(=O)Nc2ccc3c(c2)OCO3)CC1=O", "note": "(stereo unspecified)", "Potency": "inconclusive: 12.6 µM [activator, single point]"},
      {"smiles": "Oc1cccc(-c2nc3ccc4ccccc4c3c3c2CCC3)c1", "Potency": "inconclusive: 3.98 µM [activator, full curve]"},
      {"smiles": "Cc1sc(NC(=O)c2ccco2)c(C(Nc2ccccn2)c2ccccc2)c1C", "note": "(stereo unspecified)", "Potency": "inconclusive: 15.8 µM [activator, partial curve]"},
      {"smiles": "O=C(Nc1c(-c2cccs2)nc2ccccn12)c1ccccc1F", "Potency": "inconclusive: 15.8 µM [activator, single point]"},
      {"smiles": "COc1ccc(CC(=O)N2N=C(C)CC2(O)C(F)(F)F)cc1OC", "note": "(stereo unspecified)", "Potency": "inactive"},
      {"smiles": "CC(=O)c1c(O)c2ccccc2n(C)c1=O", "Potency": "inactive"},
      {"smiles": "Cc1ccc(C23CC4CC(CC(CC(=O)NC(C)(C)CO)(C4)C2)C3)cc1", "Potency": "active: 17.8 µM"},
      {"smiles": "COc1ccc(-c2[nH]c(-c3cc(OC)c4c(c3)OCO4)nc2-c2ccccc2)cc1", "Potency": "inconclusive: 10 µM [activator, partial curve]"},
      {"smiles": "Cc1c(N=Cc2c(O)n(Cc3ccco3)c(=O)c3ccccc23)c(=O)n(-c2ccccc2)n1C", "Potency": "inconclusive: 15.8 µM [activator, partial curve]"},
      {"smiles": "CNC(=O)c1cccnc1Nc1cccc(C(F)(F)F)c1", "Potency": "inconclusive: 31.6 µM [activator, single point]"},
      {"smiles": "COc1cc(NC2CCCCC2O)c2nc(-c3ccc(Cl)cc3)ccc2c1", "note": "(stereo unspecified)", "Potency": "inconclusive: 12.6 µM [activator, partial curve]"},
      {"smiles": "CC(=O)N1CCC(C(=O)OCc2ccccc2F)(c2ccccc2)CC1", "Potency": "inconclusive: 10 µM [activator, partial curve]"},
      {"smiles": "Cc1nn(C)c(C(=O)Nc2ccn(C34CC5CC(CC(C5)C3)C4)n2)c1[N+](=O)[O-]", "Potency": "inconclusive: 15.8 µM [activator, partial curve]"},
      {"smiles": "O=C(O)c1ccc(-n2nc(C(F)(F)F)cc2-c2cccs2)cc1", "Potency": "inconclusive: 0.562 µM [activator, full curve, poor fit]"},
      {"smiles": "COc1ccc(OCc2nc(N)nc(Nc3ccc(C)cc3)n2)cc1", "Potency": "inactive"},
      {"smiles": "CC(C)(C)C(=O)Nc1ccc(C(=O)Nc2cccc(Oc3ccc(C(=O)O)c(C(=O)O)c3)c2)cc1", "Potency": "inactive"},
      {"smiles": "Nc1c(C(=O)c2ccc(Br)s2)oc2ccccc12", "Potency": "inconclusive: 15.8 µM [activator, single point]"},
      {"smiles": "Cc1cc2nnc(SC(C)C)n2c2ccccc12", "Potency": "inactive"},
      {"smiles": "CC(=O)c1c(OC(=O)c2ccc(C)cc2)c2ccccc2n1C", "Potency": "inconclusive: 35.5 µM [activator, single point]"},
      {"smiles": "Cc1cccc(C(=O)Nc2scc(CC(C)C)c2C(=O)O)c1", "Potency": "inconclusive: 11.2 µM [activator, partial curve]"},
      {"smiles": "Brc1ccc(CNc2ccc3ncccc3c2)cc1", "Potency": "inactive"},
      {"smiles": "CC1(C)Cc2cccc(OCC(=O)Nc3ccc(S(N)(=O)=O)cc3)c2O1", "Potency": "inactive"},
      {"smiles": "CC1CCC(C(C)C)C(OC(=O)CSc2nccc(=O)[nH]2)C1", "note": "(stereo unspecified)", "Potency": "inconclusive: 17.8 µM [activator, partial curve]"}
    ]}
  ]
}
